Reference: US20200360400A1, “COMPOSITIONS AND METHODS FOR THE TREATMENT OF ADDICTION, PSYCHIATRIC DISORDERS, AND NEURODEGENERATIVE DISEASE” (Embera NeuroTherapeutics, Inc., priority 2017, published 2020)

Columns and labels:
[1] = Cocaine interaction crossover study: pharmacokinetics; conditions: for AUC(0-inf): human, in vivo

In the case of `O=C1Nc2ccc(Cl)cc2C(c2ccccc2)=NC1O` (stereo not drawn) [oxazepam], the “plasma concentration in the presence of cocaine” value (effect of cocaine on the drug's plasma concentration) was “did not affect”, the “influence on plasma concentration of the other drug” value (metyrapone and oxazepam given together, ip) was “did not influence” and the Cmax ([1]; EMB-001 (ERL-001)) was 653 ± 197 ng/mL. The Cmax ([1]; EMB-001 + Cocaine (ERL-002)) was 602 ± 183 ng/mL, the AUC(0-inf) ([1]; EMB-001 (ERL-001)) was 6160 ng·h/mL and the AUC(0-inf) ([1]; EMB-001 + Cocaine (ERL-002)) was 6140 ng·h/mL.
